In publication PMC9182292:
Results are given in words; binding and its absence hold for the method and conditions named. In cells and extracts the contact can be indirect. Some results given as binding are weak or reduced against the parent protein; the word gives no strength.

The chains behind the UniProt entries cited, without tags or fusion partners.
UniProt P63104: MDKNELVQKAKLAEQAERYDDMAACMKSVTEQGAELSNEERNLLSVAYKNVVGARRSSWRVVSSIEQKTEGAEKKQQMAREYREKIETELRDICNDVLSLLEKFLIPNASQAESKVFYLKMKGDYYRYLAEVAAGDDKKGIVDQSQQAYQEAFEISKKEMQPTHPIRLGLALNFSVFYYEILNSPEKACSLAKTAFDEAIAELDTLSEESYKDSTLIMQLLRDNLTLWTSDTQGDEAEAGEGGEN
UniProt O88704: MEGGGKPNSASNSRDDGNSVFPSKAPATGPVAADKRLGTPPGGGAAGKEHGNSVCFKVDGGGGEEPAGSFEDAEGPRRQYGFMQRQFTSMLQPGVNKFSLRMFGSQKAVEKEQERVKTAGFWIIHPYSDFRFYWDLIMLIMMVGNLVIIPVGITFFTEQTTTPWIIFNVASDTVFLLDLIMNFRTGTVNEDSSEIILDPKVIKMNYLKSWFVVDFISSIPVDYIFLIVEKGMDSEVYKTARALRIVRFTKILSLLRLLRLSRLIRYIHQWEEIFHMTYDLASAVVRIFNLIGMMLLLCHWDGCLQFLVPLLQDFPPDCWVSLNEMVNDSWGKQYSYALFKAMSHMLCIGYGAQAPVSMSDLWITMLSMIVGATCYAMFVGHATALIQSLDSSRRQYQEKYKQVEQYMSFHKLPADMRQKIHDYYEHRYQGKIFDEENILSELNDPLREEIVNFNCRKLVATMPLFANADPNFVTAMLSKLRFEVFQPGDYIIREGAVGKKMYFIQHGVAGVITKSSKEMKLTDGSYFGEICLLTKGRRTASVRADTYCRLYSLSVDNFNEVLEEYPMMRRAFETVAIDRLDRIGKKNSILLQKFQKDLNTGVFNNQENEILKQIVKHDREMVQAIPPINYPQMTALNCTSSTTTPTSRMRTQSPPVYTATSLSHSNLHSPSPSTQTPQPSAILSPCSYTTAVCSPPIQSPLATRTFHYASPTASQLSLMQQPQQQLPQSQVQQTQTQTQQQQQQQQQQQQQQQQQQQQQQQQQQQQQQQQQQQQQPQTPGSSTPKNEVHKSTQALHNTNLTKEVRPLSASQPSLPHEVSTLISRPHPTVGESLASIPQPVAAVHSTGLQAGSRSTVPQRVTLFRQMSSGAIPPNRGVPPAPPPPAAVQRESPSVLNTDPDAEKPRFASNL

Target: human 6His-14-3-3ζ (human) (UniProt P63104)
Assay: pull-down; 6His-14-3-3ζ immobilised on Ni-NTA resin (5 mg for brain, 0.5 mg for retina and HEK293 cells expressing full-length HCN1), lysate overnight at 4°C, 1% Triton X-100 in PBS with 25 mM imidazole; blot for HCN1; control: resin only; only the target purified

| Substance | binding |
| --- | --- |
| HCN1 (endogenous, mouse retina and whole brain) (from UniProt O88704 1-910) | binds |
| full-length mouse HCN1 expressed in HEK293 cells (from UniProt O88704 1-910) | binds |
